Assay results reported in PubChem BioAssay AID504834 (National Center for Advancing Translational Sciences (NCATS), 2011).
Hit rate of the full screen: of about 320,000 compounds, about 22,000 (6.9%) were called active. This list was built around the results that the source calls inconclusive (neither active nor inactive); the mix of calls is not that of the screen. The call rests on the fitted dose curve; in most records, active means well fitted inhibition curve with a large enough effect; inconclusive means small, poorly fitted or top-dose-only effect, or another doubt; inactive means no such curve, though single readings can be large or run the other way. Potencies beside an inconclusive call are fits to weak or partial responses and may not hold up.

Test: Primary qHTS for delayed death inhibitors of the malarial parasite plastid, 96 hour incubation
Details: P. falciparum luciferase reporter growth; series mostly up to 28.7 µM; activity change, negative = inhibition: at the top concentration
Summary of the method: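 Erythrocytes infected with luciferase-expressing P. falciparum were dispensed at 2% hematocrit and 0.05% parasitemia (final), then incubated with compounds 96 hours at 37 C in 5% CO2. Luminescence after detection reagent addition reported growth.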
On the % scale 0 is the no-effect control and ±100 the full control effect; potency means the concentration at half of the fitted maximal effect.

Row | Structure (SMILES) | Potency | activity change, negative = inhibition
1 | O=S(=O)(c1ccccc1)N1CCN(C(=S)Nc2ccccc2Cl)CC1 | inconclusive: 7.38 µM [inhibitor, partial curve] | 
2 | CCOC(=O)C(C)n1cnc2c(nnn2Cc2ccc(Cl)cc2)c1=O (stereo not given) | active: 8.28 µM | 
3 | COc1cc2c(cc1OC)-c1cc(N3CCCCCC3)nc(=O)n1CC2 | inconclusive: 18.5 µM [inhibitor, single point] | 
4 | O=C(Nc1nc2c(s1)CCCC2)c1cc(-c2ccncc2)nc2ccccc12 |  | inactive: 0%
5 | COc1ccc(-c2c(C(F)(F)F)nn(C)c2NC(=O)c2ccco2)cc1 | inconclusive: 10.4 µM [inhibitor, single point] | 
6 | CCN(CC)/C(Sc1ccccc1)=C(/C(Cl)=C(Cl)Cl)[N+](=O)[O-] | inconclusive: 18.5 µM [inhibitor, single point] | 
7 | CCc1ccc(Nc2n[n+](-c3ccccc3)c(-c3ccc(C(=O)O)cc3)s2)cc1 | inconclusive: 18.5 µM [inhibitor, single point] | 
8 | CCc1ccc(NC(=O)C(=O)N/N=C(\C)CC(=O)NCc2ccc(Cl)cc2)cc1 |  | inactive: 3.6%
9 | CCc1cc(=O)oc2cc(OCC(=O)NCCCN3CCOCC3)c(Cl)cc12 | inconclusive: 18.5 µM [inhibitor, single point] | 
10 | Cc1cc(C(F)(F)F)c(C#N)c(N2CCOCC2)n1 |  | inactive: 19.7%
11 | COc1cc(/C=C/C(=O)c2ccc3c(c2)OCO3)cc(OC)c1OC | inconclusive: 18.5 µM [inhibitor, partial curve, poor fit] | 
12 | CCOc1ccc2nc(NCCNC(=O)Nc3cccc(C)c3)c(C#N)cc2c1 |  | inactive: 9.67%
13 | Cc1cnc([N+](=O)[O-])n1CCOC(=O)NC(=O)c1ccc(C(F)(F)F)cc1 | inconclusive: 5.86 µM [inhibitor, single point] | 
14 | N#C/C(=C\c1cccnc1)c1nc2ccccc2[nH]1 | inconclusive: 18.5 µM [inhibitor, single point] | 
15 | CC1c2cc3c(cc2CCN1C(=O)c1ccc(Cl)cc1)OCCCO3 (stereo not given) | inconclusive: 14.7 µM [inhibitor, single point] | 
16 | Cc1ccc(S(=O)(=O)N2CCN(C(=O)CSc3nnc(-c4ccco4)o3)CC2)cc1 | active: 10.4 µM | 
17 | CCOC(=O)c1n[nH]n2c1nc(=S)c1ccccc12 | inconclusive: 0.657 µM [inhibitor, partial curve, poor fit] | 
18 | O=C1CSC(c2ccc(F)cc2)N1c1nnc(C23CC4CC(CC(C4)C2)C3)s1 (stereo not given) |  | inactive: -6.37%
19 | COc1ccc(Cc2nc3ccc(C(=O)N4CCOCC4)cc3o2)cc1 | inconclusive: 10.4 µM [inhibitor, single point] | 
20 | COc1cc2c(cc1N/C=C(\C#N)c1nc(-c3ccccc3)cs1)oc1ccccc12 | inconclusive: 1.31 µM [inhibitor, full curve, poor fit] | 
21 | CCOC(=O)/C(C#N)=C/c1c(N2CCN(c3cccc(Cl)c3)CC2)nc2c(C)cccn2c1=O | inconclusive: 9.28 µM [inhibitor, single point] | 
22 | COc1cc(/C=C2/C(=O)N(c3ccc(Br)cc3)N=C2C)cc(OC)c1OC |  | inactive: 26.3%
23 | CC(C)(C)c1ccc(C(=O)NCCCN2CCN(CCCNC(=O)c3ccc(C(C)(C)C)cc3)CC2)cc1 | inconclusive: 11.7 µM [inhibitor, single point] | 

Row | Structure (SMILES) | Potency | activity change, negative = inhibition
24 | CCOC(=O)c1ccc(N=C2SC(C(=O)NC)CC(=O)N2CCc2ccccc2)cc1 (stereo not given) | inconclusive: 0.586 µM [inhibitor, full curve, poor fit] | 
25 | O=C1NC(=S)S/C1=C/c1ccc(Oc2cnccn2)cc1 | inconclusive: 0.657 µM [inhibitor, full curve, poor fit] | 
26 | Cc1ccc2c(c1)NC(=O)C(CC(=O)NCCCN1CCN(C3CCCCC3)CC1)O2 (stereo not given) | inconclusive: 1.65 µM [inhibitor, full curve] | 
27 | CN(CC(=O)Nc1ccc(F)cc1)S(=O)(=O)c1ccc2c(c1)c(=O)n(C)c(=O)n2C |  | inactive: -0.874%
28 | O=C(Cn1nc(-c2ccccc2)ccc1=O)NCCN1CCN(c2cccc(Cl)c2)CC1 | inconclusive: 18.5 µM [inhibitor, single point] | 
29 | CCOc1ccc(NC(=S)Nc2ccc(OCC)cc2)cc1 | inconclusive: 10.4 µM [inhibitor, single point] | 
30 | O=C(OCc1cccc(F)c1)c1ccc2c(=O)n3c(nc2c1)CCC3 | inconclusive: 18.5 µM [inhibitor, single point] | 
31 | CCN(CC(=O)Nc1c(F)cccc1F)C(=O)c1cc(S(=O)(=O)N(C)C)ccc1N1CCCC1 | inconclusive: 18.5 µM [inhibitor, single point] | 
32 | CC1=CCCC(C)(C)C1/C=C/C(C)=N/NC(=O)c1ccncc1 (stereo not given) | inconclusive: 14.7 µM [inhibitor, single point] | 
33 | O=C(Nc1ccc(F)cc1)c1cc(S(=O)(=O)N2CCCCC2)cs1 | inconclusive: 18.5 µM [inhibitor, single point] | 
34 | CCOC(=O)N1CCN(C(=O)c2ccc(NS(C)(=O)=O)cc2)CC1 |  | inactive: 27.3%
35 | COc1cc(C2c3c(-c4ccccc4)n[nH]c3C(=O)N2c2ccccc2)ccc1O (stereo not given) |  | inactive: 4.1%
36 | COc1cc(/C=C(/C(=O)O)c2ccc(-c3ccccc3)cc2)cc(OC)c1OC |  | inactive: -13.1%
37 | CCCC(NC(=O)c1c(C)noc1C)C12CC3CC(CC(C3)C1)C2 (stereo not given) |  | inactive: -25.5%
38 | CCn1nc(C)c([N+](=O)[O-])c1C(=O)NNC(=O)c1ccccc1Cl |  | inactive: -0.844%
39 | CN(C)[C@@H]1CCC[C@@H]1OC(=O)C(c1ccccc1)c1ccccc1 |  | inactive: 49%
40 | CC1N=C(N)C(c2nc3ccccc3n2C)=C1O (stereo not given) |  | inactive: -2.73%
41 | COc1ccc(CCn2c(O)c(C=NCc3ccc4c(c3)OCO4)c(=O)[nH]c2=O)cc1OC | inconclusive: 18.5 µM [inhibitor, single point] | 
42 | Cc1ccc(NC(=O)CN2C(=O)N/C(=C/c3ccc(C)o3)C2=O)cc1 |  | inactive: 95.5%
43 | N#Cc1c(N)c2ccccn2c1C(=O)c1ccc(Br)cc1 |  | inactive: -36.9%
44 | CCOC(=O)c1cc(CC)sc1NC(=O)COC(=O)c1ccccn1 |  | inactive: 3.98%
45 | CCCCOCC1CC(CC#CCN2CCCCC2)C(=O)O1 (stereo not given) | inconclusive: 10.4 µM [inhibitor, partial curve] | 

Three compounds from above, sorted by heavy-atom count, low to high:
Row | Structure (SMILES) | Potency | activity change, negative = inhibition
34 | CCOC(=O)N1CCN(C(=O)c2ccc(NS(C)(=O)=O)cc2)CC1 |  | inactive: 27.3%
42 | Cc1ccc(NC(=O)CN2C(=O)N/C(=C/c3ccc(C)o3)C2=O)cc1 |  | inactive: 95.5%
24 | CCOC(=O)c1ccc(N=C2SC(C(=O)NC)CC(=O)N2CCc2ccccc2)cc1 (stereo not given) | inconclusive: 0.586 µM [inhibitor, full curve, poor fit] | 
